At least one read-out could not be matched to a standard name with certainty.
System: NIE-115 mouse neuroblastoma
Experiment: SHG and 2PF voltage sensitivity, 50 mV step, slow switching protocol on patch-clamped neuroblastoma cell
Assay type: cell-based
Conditions: excitation 1064 nm, emission 750-850 nm; 50 mV voltage change
Description: For full details of our non-linear imaging microscope, we refer the reader to previously published descriptions. A. C. Millard, P. J. Campagnola, W. Mohler, A. Lewis, and L. M. Loew, “Second Harmonic Imaging Microscopy,” Meth. Enzymol. 361, 47-69 (2003); Millard, A. C., L. Jin, and L. M. Loew, “Second Harmonic Generation Imaging Microscopy with a High Power Ultrafast Fiber Laser,”Commercial and Biomedical Applications of Ultrafast Lasers. 5714-5716, 92-98 (2005); A. C. Millard, L. Jin, M.-D. Wei, J. P. Wuskell, A. Lewis, and L. M. Loew, “Sensitivity of Second Harmonic Generation from Styryl Dyes to Transmembrane Potential,” Biophys. J. 86, 1169-1176 (2004). Our current microscope combines a Fluoview (Olympus) scan-head and an Axiovert (Zeiss) inverted microscope constructed for multiple imaging methodologies including wide-field, one-photon excitation fluorescence imaging, as well as SHG and 2PF imaging. Our laser sources include a Mira (Coherent) Ti:sapphire laser and a Femtopower (Fianium) fiber laser operating at 1064 nm. […] Fluorescence is imaged (for linear imaging) or collected (for non-linear imaging) back through the excitation objective, while SHG is collected in the forward, transmitted light direction by a condenser, either 0.8 NA or 0.55 NA (Zeiss). […]

CCN(CC)c1ccc(-c2ccc(-c3ccc(/C=C/c4cc[n+](CCC[N+](CC)(CC)CC)cc4)s3)s2)s1 [PY-1268] was tested, and the “2PF Change, 750-850 nm” value was −4.28 ± 0.54 %/50 m.

Source: patent US8129532B2, “Amino(oligo)thiophene dyes, preparation thereof, and optical methods of use” (The University of Connecticut, priority 2007, dated 2012)
